Test results taken from US7803768B2, “Method for treatment of hyperglycemia in a subject in need thereof” (Kyoto University, priority 2005, dated 2010).

System: n0-STZ model
Experiment: n0-STZ model: neonatal streptozotocin-treated rats given rat ghrelin (Example 1)
Type: in vivo, Sprague Dawley rats
Details: 100 μg/kg s.c. twice a day, 2nd to 8th day after birth, mean ± SE
Description: Female or male Sprague Dawley rats, purchased from Charles River were, were allowed free access to tap water and a standard pellet rat diet (352 kcal/100 g, CE-2, CLEA). Females were caged with a male for one night, and pregnancy was detected by abdominal palpation 14 days later. Natural birth occurred 22 days after mating. […]
Insulin and pdx-1 were detected immunohistochemically on 3 μm-thick tissue sections using an indirect peroxidase-labeling technique. […] Quantitative evaluations of total β cells area were performed by a computer-assisted image analysis procedure using an Olympus BX 51 microscope connected to a digital camera DP 12 and Mac SCOPE Ver2.6 software (Mitani, Fukui, Japan). β cells area and total pancreatic section area were evaluated for each stained section. A relative volume of β cells was determined by a sterological morphological method, with calculation of the ratio between the areas occupied by immunoreactive cells and those occupied by total pancreatic cells. […]
Realtime PCR was performed as follows. […] The concentration of each mRNA product was quantified using calibration curves expressing the fluorescence intensity against the amount of standardized PCR product. […]

GSS(n-octanoyl)FLSPEHQKAQQRKESKKPPAKLQPR [rat ghrelin]
Pancreas Weight (10-week-old rats): 556 ± 83 mg
Body Weight (21-day-old rats): 36.3 ± 3.9 g
